# Experimental data published in US20210261667A1.
# These are yes or no findings as the source states them, for the method shown. Binding can be weak; no strength is given.
# B1: bivalent anti-PD-L1 single-domain antibody before humanization (Fc fusion, not shown: a dimerising Fc or GST)
# chain: QVQLQESGGGSVQAGGSLRLSCTASGYNLSPSCMGWFRQAPGKEREGVAFTDADGSTRYADSVKARFTISRDNAENTLYLQMNSLKPEDTAMYYCAADFFSYCSVVFRASARDKYRGQGTQVTVSS
# Tests used:
# monkey PD-L1 (monkey) [1] = assay: ELISA, coated antigen
# monkey PD-L1 (monkey) [2] = assay: ELISA on coated antigen, A405 nm; single antibody concentration, 10 ug/mL by paragraph 203
binder,measurement,setting,value
B1,binding,monkey PD-L1 (monkey) [1],binds
same,binding,monkey PD-L1 (monkey) [2],binds
